# Assay results as given in PubChem BioAssay AID652054 (National Center for Advancing Translational Sciences (NCATS), 2013).
# The chains behind the UniProt entries cited, without tags or fusion partners.
# UniProt P35462, whole entry, looked up: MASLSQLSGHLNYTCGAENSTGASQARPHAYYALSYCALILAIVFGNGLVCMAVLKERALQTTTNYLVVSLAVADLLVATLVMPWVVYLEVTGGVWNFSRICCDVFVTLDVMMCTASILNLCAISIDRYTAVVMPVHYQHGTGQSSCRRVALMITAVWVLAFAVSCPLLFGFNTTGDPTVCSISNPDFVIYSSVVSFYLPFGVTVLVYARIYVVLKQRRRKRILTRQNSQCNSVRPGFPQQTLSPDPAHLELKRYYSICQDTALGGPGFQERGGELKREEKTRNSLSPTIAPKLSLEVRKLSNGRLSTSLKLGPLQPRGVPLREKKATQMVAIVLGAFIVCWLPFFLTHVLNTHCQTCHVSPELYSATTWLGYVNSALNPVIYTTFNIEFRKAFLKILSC
# The whole screen tested about 360,000 compounds, of which about 9,100 (2.5%) were called active. This list was built around the results that the source calls inconclusive (neither active nor inactive); the mix of calls is not that of the screen. Rule as the data show it: active = max response below about -50%; inconclusive = no clear call, values can overlap the other calls; inactive = above that.
# Biological target: D(3) dopamine receptor (Homo sapiens) (UniProt P35462)
# Experiment: qHTS of D3 Dopamine Receptor Antagonist: qHTS
# Conditions: D3R cells, DiscoveRx beta-arrestin luminescence, antagonist mode; hits give low values
# Summary of the method: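 Cells plated overnight at 1500 cells/well, then exposed to library compounds with dopamine controls for 90 minutes at 37 degrees C. DiscoveRx reagent added for 30–60 minutes at room temperature; luminescence read, quantitative HTS format.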
# % is scaled to controls: 0 for no effect and ±100 for the full control effect.
row,Structure (SMILES),"max response, negative = inhibition"
1,Oc1ccc(C=NNc2ccccn2)c(O)c1,active: -61.4%
2,CCCC(=O)NC1=C(Cl)C(=O)c2ccccc2C1=O,active: -67.7%
3,O=C(CC(=O)c1ccccn1)c1ccccc1,inconclusive: -46.1%
4,Cc1ccc(S(=O)(=O)N(Cc2ccccc2)c2ccccc2C(=O)NCc2ccco2)cc1,inconclusive: -35.9%
5,Cc1cc(-c2n[nH]c(=S)n2/N=C/C=C/c2ccccc2)n[nH]1,inconclusive: -46%
6,Cn1c(N)c(C(=O)COC(=O)C2CCC(C(C)(C)C)CC2)c(=O)n(C)c1=O (stereo not drawn),inactive: 47%
7,COc1cc(NC(C)C(=O)N2CC(C)OC(C)C2)cc(OC)c1 (stereo not drawn),inconclusive: -39.6%
8,CC(C)C1C(C#N)=C(N)SC(N)=C1C#N,inconclusive: -32.1%
9,Cc1ccc2nc(SCC(=O)NCC3CCCO3)c(C#N)cc2c1 (stereo not drawn),inactive: -12.2%
10,CSc1ncccc1C(=O)NCC(c1cccs1)N1CCOCC1 (stereo not drawn),inactive: 2.11%
11,O=C(O)C(c1ccccc1)N1C(=O)/C(=C\c2ccc(-c3ccccc3Cl)o2)SC1=S (stereo not drawn),inconclusive: -33.6%
12,COc1ccc2nc(SCC(=O)NCc3ccccc3)[nH]c2c1,inactive: 6.75%
13,CC(C)OC(=O)N(C)C[C@@H]1OCc2cnnn2CCCC(=O)N([C@@H](C)CO)C[C@H]1C,inactive: 11.5%
14,COc1ccc(C(CNC(=O)Cc2ccccc2)N2CCCCC2)cc1 (stereo not drawn),inactive: -19.1%
15,C=CC(=O)NC(C)(C)Cc1ccccc1,inconclusive: -32.6%
16,O=S(=O)(c1ccc(N2CC=C(c3ccccc3)CC2)nc1)N1CCCC1,inactive: 2.47%
17,N#Cc1ccccc1Sc1ccccc1C(=O)NCC(c1ccco1)N1CCCCC1 (stereo not drawn),inactive: -7.78%
18,COc1ccc(CN2CCN(C3CCC3)CC2CCO)c(C)c1C (stereo not drawn),inconclusive: -43.3%
19,c1ccc2sc(Sc3ncnc4sccc34)nc2c1,inactive: 2.9%
20,COc1ccccc1N1CCN(C(=O)Cn2c(=O)[nH]c3ccsc3c2=O)CC1,inconclusive: -48.9%

row,Structure (SMILES),"max response, negative = inhibition"
1,C[C@H](CO)N1C[C@H](C)[C@H](CN(C)Cc2ccncc2)Oc2ncc(C#CC3CC3)cc2C1=O,active: -55.6%
2,O=C(C1CCCCC1)N1C[C@@H](O)[C@H](n2cc(C3CC3)nn2)C[C@@H]1c1ccc(Cl)cc1,inactive: 4.23%
3,OCCNc1nc(N2CCN(c3ccccc3)CC2)nc2ccccc12,inactive: -10.7%
4,O=C(CSC1=NCCS1)N1CCN(c2ccc(Cl)cc2)CC1,inconclusive: -40.5%
5,CCCCNC(=O)C1(C)CCCCN1Cc1ccc(-c2ccccc2)cc1 (stereo not drawn),inconclusive: -37.3%
6,CCCC(=O)Nc1nc2ccc(S(=O)(=O)N3CCCCC3)cc2s1,inconclusive: -49.8%
7,Cc1cc(C)n(C(=O)c2ccc(NC(=O)CC(C)C)cc2)n1,inactive: 16.6%
8,Oc1c(I)cc(I)c2cccnc12,inconclusive: -32.5%
9,Cc1nc2c(=O)n(-c3ccc(F)cc3F)nc(C)c2s1,inconclusive: -35.5%
10,NNc1nc(-c2ccccc2Cl)nc2ccccc12,active: -92.1%
11,Cc1n[nH]c(=O)nc1NCCN(C)C,inconclusive: -32.2%
12,CSc1ccc(CN2CCC(n3nccc3NC(=O)CCCc3ccccc3)CC2)cc1,inconclusive: -44.7%
13,CCNc1nc(NCC)nc(C(=O)NN)n1,inconclusive: -46.9%
14,CCOc1ccc(/C=C/C2=CC(C)(C)NC(=S)N2)cc1,inactive: -22.8%
15,COC(=O)CCC(=O)c1oc2ccc(Br)cc2c1N,inactive: 12.3%
16,COc1ccccc1-c1cc(C(F)(F)F)nc(S(=O)(=O)CCCC(=O)N2CCCCC2C)n1 (stereo not drawn),active: -88%
17,COc1ccc(C2Nc3ccccc3C(=O)N2c2ccc(C)cc2)cc1Cn1nnc2ccccc21 (stereo not drawn),inconclusive: -33.7%
18,CCSc1nnc(NC(=O)C2CC2c2ccccc2)s1 (stereo not drawn),inactive: 8.46%
19,CCc1nc2ccc(C(=O)N3CCN(C(=O)c4ccco4)CC3)cn2c1N(C)C(=O)C1CCCCC1,inactive: 3.91%
20,O=C(NCCO)c1cccc(-c2cccc3nccn23)c1,inconclusive: -35.4%

# Fetched by structure from the list above, 2 records:
row,Structure (SMILES),"max response, negative = inhibition"
14,CCOc1ccc(/C=C/C2=CC(C)(C)NC(=S)N2)cc1,inactive: -22.8%
16,COc1ccccc1-c1cc(C(F)(F)F)nc(S(=O)(=O)CCCC(=O)N2CCCCC2C)n1 (stereo not drawn),active: -88%

# (further entries)

row,Structure (SMILES),"max response, negative = inhibition"
1,O=C(Nc1ccc2c(c1)CCC2)c1cccc(S(=O)(=O)N2CCN(c3ccc(F)cc3)CC2)c1,inconclusive: -35.7%
2,CCOC(=O)C1CCCN(C(=O)c2ccc(C)c(F)c2)CC1 (stereo not drawn),inactive: -26.1%
3,CN(Cc1ccccc1)C(=O)c1ccc(NC(=O)Cc2ccc(NC(=O)C3CCN(C(=O)C4CCCCC4)CC3)cc2)cc1,inconclusive: -47.7%
4,CCc1cc(C(=O)Cc2nc3ccccc3[nH]2)c(O)cc1O,inconclusive: -37.2%
5,C=CCn1c[n+](CC(=O)c2ccc(Br)s2)c2ccccc21,inconclusive: -35.2%
6,CC(=O)Nc1ccc(NC(=O)CSC2=NS(=O)(=O)c3cc(Cl)ccc3N2)cc1,inactive: -10.6%
7,CCn1cnc2c(oc3ccccc32)c1=O,inconclusive: -44.6%
8,CCc1ccccc1OCCCCN1CCCC1,inconclusive: -37.5%
9,Cc1ccc(C(=O)Nc2nnc(S(=O)(=O)N3CCOCC3)s2)cc1,active: -57.3%
10,CCOc1ccc(CN2CCN(C(=O)c3cccc(F)c3)CC2)cc1,inconclusive: -43.5%
11,Cn1cc([N+](=O)[O-])c(C(=O)Nc2nc(-c3ccc(Cl)cc3)cs2)n1,inactive: 0%
12,Cc1cc(C(=O)N/N=C/c2ccc(O)c([N+](=O)[O-])c2)c(C)n1-c1ccc(F)cc1,inconclusive: -34.8%
13,COc1cccc(C2C(C#N)=C(N)Oc3cc(C)[nH]c(=O)c32)c1OC (stereo not drawn),inconclusive: -32%
14,COc1ccc(CCC(=O)N2CCN(c3ccc([N+](=O)[O-])cc3)CC2)cc1OC,inactive: 16.3%
15,O=C(NNC(=O)c1ccccc1Cl)c1ccc(-n2cncn2)c([N+](=O)[O-])c1,inconclusive: -47.9%
16,O=C(NCc1ccc2c(c1)OCO2)c1ccc(N2CCCCCC2)c([N+](=O)[O-])c1,active: -60.2%
17,Cc1ccc(NC(=O)c2ccc(N/N=C/c3cccc(O)c3)c([N+](=O)[O-])c2)cc1,inconclusive: -36.8%
18,Cc1nn(C)c(C)c1CN(C)C(=O)CCCC(=O)O,inconclusive: -31.2%
